Data taken from publication doi:10.1101/2023.12.13.571451 (bioRxiv, 2023).
No constants are given. Whether binding was seen depends on the method and setting. For some of these results: Binding seen in cells or lysates may run through a third protein. Some entries that bind do so weakly or less than the wild type. Tags and fused reporters may be left off the sequences shown.

T1: Tsa1^WT-HA (peroxiredoxin Tsa1, single C-terminal HA tag at the endogenous locus) (S. cerevisiae) (UniProt P34760)
T1 sequence: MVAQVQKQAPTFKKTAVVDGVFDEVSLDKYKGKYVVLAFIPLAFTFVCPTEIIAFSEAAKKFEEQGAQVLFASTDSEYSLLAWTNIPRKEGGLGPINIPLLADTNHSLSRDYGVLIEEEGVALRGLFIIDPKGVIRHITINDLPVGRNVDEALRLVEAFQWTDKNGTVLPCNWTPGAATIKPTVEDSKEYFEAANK

T2: Gnd1-V5 (6-phosphogluconate dehydrogenase) (S. cerevisiae) (UniProt P38720)
T2 sequence: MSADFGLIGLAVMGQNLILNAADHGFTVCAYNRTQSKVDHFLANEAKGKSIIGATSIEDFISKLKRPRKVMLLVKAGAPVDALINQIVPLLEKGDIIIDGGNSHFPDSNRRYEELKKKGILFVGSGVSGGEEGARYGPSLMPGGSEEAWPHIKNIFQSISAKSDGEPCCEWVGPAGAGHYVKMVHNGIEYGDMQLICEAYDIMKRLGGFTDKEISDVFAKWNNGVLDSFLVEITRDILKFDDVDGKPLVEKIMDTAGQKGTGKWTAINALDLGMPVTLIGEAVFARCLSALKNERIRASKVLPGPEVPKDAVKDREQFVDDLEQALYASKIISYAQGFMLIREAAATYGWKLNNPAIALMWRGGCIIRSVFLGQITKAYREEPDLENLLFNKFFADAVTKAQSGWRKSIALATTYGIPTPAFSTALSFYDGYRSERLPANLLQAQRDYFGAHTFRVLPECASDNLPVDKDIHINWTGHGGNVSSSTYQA

T3: untagged Cdc19 (pyruvate kinase, endogenous) (S. cerevisiae) (UniProt P00549)
T3 sequence: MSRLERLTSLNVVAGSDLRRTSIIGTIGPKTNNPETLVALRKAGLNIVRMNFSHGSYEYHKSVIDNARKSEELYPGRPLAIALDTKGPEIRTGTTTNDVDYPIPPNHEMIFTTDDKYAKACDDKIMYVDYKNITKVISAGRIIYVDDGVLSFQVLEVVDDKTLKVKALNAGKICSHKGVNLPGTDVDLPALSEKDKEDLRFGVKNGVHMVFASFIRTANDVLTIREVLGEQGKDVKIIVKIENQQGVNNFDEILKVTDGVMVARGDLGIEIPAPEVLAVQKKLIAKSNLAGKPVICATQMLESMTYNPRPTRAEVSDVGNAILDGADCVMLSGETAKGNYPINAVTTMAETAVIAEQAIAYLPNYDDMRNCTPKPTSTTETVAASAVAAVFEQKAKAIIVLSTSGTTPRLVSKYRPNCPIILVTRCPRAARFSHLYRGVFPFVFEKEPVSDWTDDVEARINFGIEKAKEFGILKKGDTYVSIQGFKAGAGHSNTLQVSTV


Assays:
[1] = biological target: T1, Tsa1^WT-HA (peroxiredoxin Tsa1, single C-terminal HA tag at the endogenous locus) (S. cerevisiae); assay: non-reducing SDS-PAGE with immunoblot
[2] = biological target: T2, Gnd1-V5 (6-phosphogluconate dehydrogenase) (S. cerevisiae); assay: co-IP
[3] = biological target: T3, untagged Cdc19 (pyruvate kinase, endogenous) (S. cerevisiae); assay: co-IP
[4] = biological target: untagged wild-type Tsa1 (endogenous) (S. cerevisiae) (UniProt P34760); assay: non-reducing SDS-PAGE with immunoblot

Row | binding [1] | binding [2] | binding [3] | binding [4] | Binder
1 | binds | – | – | – | Srx1 (sulfiredoxin, endogenous) (enzyme, UniProt P36077 1-127) MSLQSNSVKPTEIPLSEIRRPLAPVLDPQKIDAMVATMKGIPTASKTCSLEQAEAAASAGELPPVDVLGVRVKGQTLYYAFGGCHRLQAYDRRARETQNAAFPVRCRVLPATPRQIRMYLGSSLDIE
2 | – | binds | binds | binds | untagged wild-type Tsa1 (endogenous) (protein, UniProt P34760 1-196) MVAQVQKQAPTFKKTAVVDGVFDEVSLDKYKGKYVVLAFIPLAFTFVCPTEIIAFSEAAKKFEEQGAQVLFASTDSEYSLLAWTNIPRKEGGLGPINIPLLADTNHSLSRDYGVLIEEEGVALRGLFIIDPKGVIRHITINDLPVGRNVDEALRLVEAFQWTDKNGTVLPCNWTPGAATIKPTVEDSKEYFEAANK
